Measured data: PubChem BioAssay AID652259 (Drosophila RNAi Screening Center, 2013)

Aim: 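Identify new Wingless signalling regulators in fly cells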 (primary screen)
Cell system: Drosophila clone 8 imaginal disc epithelial cells
Reagents: long dsRNA against Drosophila genes
Challenge: pathway stimulated by co-transfected Wingless expression plasmid
Measurement: 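Firefly luciferase from a tcf-site Wingless reporter, measured alongside co-transfected Renilla luciferase that tracks transfection; pathway stimulated by a Wingless plasmid; the firefly-to-Renilla ratio is not deposited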
Reading the numbers: firefly reporter light: higher = more Wg reporter light, before normalisation; Renilla control light: higher = more transfected or surviving cells
Rule for the call: 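Strong candidates differ from their plate mean by at least two out of four per-plate statistical tests; weak candidates meet just one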
Calls: active = candidate regulator (raises or lowers reporter); inactive = not a candidate
The deposit covers about 22,000 reagents; below is a random part of those that have a named target and a result. Of all reagents, 233 (1.1%) were called active. 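Light values are raw, unnormalised plate reads; the ratio scores behind the reporter calls were not deposited.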 Unmarked entries are inactive. The numbers tell different reagents against one gene apart. No sequences are given here. Not given: the amount of reagent, the time to read-out, the dose of the treatment.

CG15472 — firefly reporter light, replicate 1 = 19168; Renilla control light, replicate 1 = 8470
CG31510 — firefly reporter light, replicate 1 = 20346; Renilla control light, replicate 1 = 15014
schuy — firefly reporter light, replicate 1 = 15421; Renilla control light, replicate 1 = 4769
CG10730 — firefly reporter light, replicate 1 = 2934; firefly reporter light, replicate 2 = 6412; Renilla control light, replicate 1 = 757; Renilla control light, replicate 2 = 3612
CG13743 #1 — firefly reporter light, replicate 1 = 19557; Renilla control light, replicate 1 = 12788
CG13743 #2 — firefly reporter light, replicate 1 = 4109; firefly reporter light, replicate 2 = 12338; Renilla control light, replicate 1 = 480; Renilla control light, replicate 2 = 1669
CG13743 #3 — firefly reporter light, replicate 1 = 6.89e5; firefly reporter light, replicate 2 = 6.22e5; Renilla control light, replicate 1 = 2.02e5; Renilla control light, replicate 2 = 74478
CG32985 — firefly reporter light, replicate 1 = 2230; firefly reporter light, replicate 2 = 8505; Renilla control light, replicate 1 = 563; Renilla control light, replicate 2 = 2673
CheA7a — firefly reporter light, replicate 1 = 17625; Renilla control light, replicate 1 = 10464
CG30270 — firefly reporter light, replicate 1 = 5.81e5; firefly reporter light, replicate 2 = 4.83e5; Renilla control light, replicate 1 = 2.29e5; Renilla control light, replicate 2 = 1.38e5
Osi6 — firefly reporter light, replicate 1 = 13909; Renilla control light, replicate 1 = 4247
CG34106 — firefly reporter light, replicate 1 = 18845; Renilla control light, replicate 1 = 8920
Obp85a — firefly reporter light, replicate 1 = 8209; Renilla control light, replicate 1 = 3143
spict — firefly reporter light, replicate 1 = 8098; Renilla control light, replicate 1 = 2856
CG13989 — firefly reporter light, replicate 1 = 2504; firefly reporter light, replicate 2 = 5627; Renilla control light, replicate 1 = 692; Renilla control light, replicate 2 = 2384
CG42237 — firefly reporter light, replicate 1 = 22180; Renilla control light, replicate 1 = 12915
Smyd4-4 — firefly reporter light, replicate 1 = 6316; Renilla control light, replicate 1 = 2080
APC7 — firefly reporter light, replicate 1 = 2547; firefly reporter light, replicate 2 = 4545; Renilla control light, replicate 1 = 816; Renilla control light, replicate 2 = 1972
Mt2 — firefly reporter light, replicate 1 = 2353; firefly reporter light, replicate 2 = 5328; Renilla control light, replicate 1 = 1031; Renilla control light, replicate 2 = 2402
CG30383 — firefly reporter light, replicate 1 = 13240; Renilla control light, replicate 1 = 6552
CG32631 — firefly reporter light, replicate 1 = 4721; firefly reporter light, replicate 2 = 12509; Renilla control light, replicate 1 = 1776; Renilla control light, replicate 2 = 5001
CG33120 — firefly reporter light, replicate 1 = 9824; Renilla control light, replicate 1 = 2298
CG1233 — firefly reporter light, replicate 1 = 13072; Renilla control light, replicate 1 = 2362
slpr — firefly reporter light, replicate 1 = 3059; firefly reporter light, replicate 2 = 4912; Renilla control light, replicate 1 = 896; Renilla control light, replicate 2 = 1992
mip120 — firefly reporter light, replicate 1 = 9232; Renilla control light, replicate 1 = 4105
